No constants are given. Whether binding was seen depends on the method and setting. Binding seen in cells or lysates may run through a third protein. Some results given as binding are weak or reduced against the parent protein; the word gives no strength.
Target: PB2-Glc2 of influenza A virus A/WSN/33 (H1N1WSN) (influenza A virus A/WSN/33 (H1N1)) (UniProt P03427)
Assay: split reporter

Amino acid sequences for entries named in this document (tags omitted).
UniProt P03427: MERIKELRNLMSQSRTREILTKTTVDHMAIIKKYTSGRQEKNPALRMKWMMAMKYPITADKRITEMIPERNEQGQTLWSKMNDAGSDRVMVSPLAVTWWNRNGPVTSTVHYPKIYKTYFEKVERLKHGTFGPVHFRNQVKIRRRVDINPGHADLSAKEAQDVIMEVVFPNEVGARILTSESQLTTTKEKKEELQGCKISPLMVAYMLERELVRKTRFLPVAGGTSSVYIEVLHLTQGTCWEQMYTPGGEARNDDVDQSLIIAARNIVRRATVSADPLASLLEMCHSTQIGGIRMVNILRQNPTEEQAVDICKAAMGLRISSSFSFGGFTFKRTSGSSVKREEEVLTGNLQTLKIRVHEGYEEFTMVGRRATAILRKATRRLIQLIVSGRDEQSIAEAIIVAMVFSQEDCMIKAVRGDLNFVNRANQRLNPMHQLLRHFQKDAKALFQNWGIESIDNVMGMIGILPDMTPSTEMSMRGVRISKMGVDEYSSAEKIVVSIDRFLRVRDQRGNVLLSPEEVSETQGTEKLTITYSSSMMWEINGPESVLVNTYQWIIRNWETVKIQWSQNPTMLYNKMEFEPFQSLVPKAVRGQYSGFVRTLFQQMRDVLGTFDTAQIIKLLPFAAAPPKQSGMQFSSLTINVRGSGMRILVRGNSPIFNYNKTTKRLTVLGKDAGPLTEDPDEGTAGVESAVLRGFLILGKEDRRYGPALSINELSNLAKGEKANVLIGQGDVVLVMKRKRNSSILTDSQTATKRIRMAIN

B1: NUP50 (protein, UniProt Q9UKX7 1-468)
chain: MAKRNAEKELTDRNWDQEDEAEEVGTFSMASEEVLKNRAIKKAKRRNVGFESDTGGAFKGFKGLVVPSGGGRFSGFGSGAGGKPLEGLSNGNNITSAPPFASAKAAADPKVAFGSLAANGPTTLVDKVSNPKTNGDSQQPSSSGLASSKACVGNAYHKQLAALNCSVRDWIVKHVNTNPLCDLTPIFKDYEKYLANIEQQHGNSGRNSESESNKVAAETQSPSLFGSTKLQQESTFLFHGNKTEDTPDKKMEVASEKKTDPSSLGATSASFNFGKKVDSSVLGSLSSVPLTGFSFSPGNSSLFGKDTTQSKPVSSPFPTKPLEGQAEGDSGECKGGDEEENDEPPKVVVTEVKEEDAFYSKKCKLFYKKDNEFKEKGIGTLHLKPTANQKTQLLVRADTNLGNILLNVLIPPNMPCTRTGKNNVLIVCVPNPPIDEKNATMPVTMLIRVKTSEDADELHKILLEKKDA
- binding: binds
